These are yes or no findings as the source states them, for the method shown. Binding seen in cells or lysates may run through a third protein. These calls come from enrichment with a bait or labelling near it, and not all partners need be listed. Where a sequence is shown, tags or fusion partners need not be part of it.

Amino acid sequences for entries named in this document (tags omitted). A change or cut given only in a name is not applied to a line headed by its entry.
UniProt P08111: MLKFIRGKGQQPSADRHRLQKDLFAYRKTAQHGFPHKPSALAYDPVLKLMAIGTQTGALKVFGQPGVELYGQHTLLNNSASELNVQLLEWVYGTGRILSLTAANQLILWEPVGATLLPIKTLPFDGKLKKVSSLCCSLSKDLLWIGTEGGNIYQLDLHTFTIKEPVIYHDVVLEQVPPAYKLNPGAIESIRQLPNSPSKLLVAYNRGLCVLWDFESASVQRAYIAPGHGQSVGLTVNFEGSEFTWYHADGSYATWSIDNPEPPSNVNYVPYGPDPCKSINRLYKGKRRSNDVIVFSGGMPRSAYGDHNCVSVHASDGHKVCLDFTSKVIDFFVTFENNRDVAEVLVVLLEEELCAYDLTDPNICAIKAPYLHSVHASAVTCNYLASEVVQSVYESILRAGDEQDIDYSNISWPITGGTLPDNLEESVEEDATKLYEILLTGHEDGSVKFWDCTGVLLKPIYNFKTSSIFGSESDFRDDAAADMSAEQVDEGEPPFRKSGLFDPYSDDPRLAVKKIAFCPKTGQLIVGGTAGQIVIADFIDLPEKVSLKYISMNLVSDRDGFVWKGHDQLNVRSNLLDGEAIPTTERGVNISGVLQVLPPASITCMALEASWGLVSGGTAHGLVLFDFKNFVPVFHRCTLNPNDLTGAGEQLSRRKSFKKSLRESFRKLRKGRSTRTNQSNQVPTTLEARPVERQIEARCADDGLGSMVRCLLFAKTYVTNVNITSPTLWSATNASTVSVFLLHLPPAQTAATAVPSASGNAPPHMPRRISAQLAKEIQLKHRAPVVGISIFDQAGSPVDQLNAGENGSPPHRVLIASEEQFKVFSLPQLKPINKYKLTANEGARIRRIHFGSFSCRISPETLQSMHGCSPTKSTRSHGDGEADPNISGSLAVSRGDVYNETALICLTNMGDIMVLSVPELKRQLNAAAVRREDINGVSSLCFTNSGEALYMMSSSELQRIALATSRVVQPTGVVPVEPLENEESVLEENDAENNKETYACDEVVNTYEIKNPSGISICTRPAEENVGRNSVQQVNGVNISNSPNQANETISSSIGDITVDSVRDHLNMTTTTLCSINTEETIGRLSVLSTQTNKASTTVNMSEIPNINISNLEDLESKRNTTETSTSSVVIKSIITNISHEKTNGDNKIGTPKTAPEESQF

This assay addresses T1, Tetra-Tag aPKC full-length (TTaPKC FL) (Drosophila) (UniProt A1Z9X0).
T1 sequence: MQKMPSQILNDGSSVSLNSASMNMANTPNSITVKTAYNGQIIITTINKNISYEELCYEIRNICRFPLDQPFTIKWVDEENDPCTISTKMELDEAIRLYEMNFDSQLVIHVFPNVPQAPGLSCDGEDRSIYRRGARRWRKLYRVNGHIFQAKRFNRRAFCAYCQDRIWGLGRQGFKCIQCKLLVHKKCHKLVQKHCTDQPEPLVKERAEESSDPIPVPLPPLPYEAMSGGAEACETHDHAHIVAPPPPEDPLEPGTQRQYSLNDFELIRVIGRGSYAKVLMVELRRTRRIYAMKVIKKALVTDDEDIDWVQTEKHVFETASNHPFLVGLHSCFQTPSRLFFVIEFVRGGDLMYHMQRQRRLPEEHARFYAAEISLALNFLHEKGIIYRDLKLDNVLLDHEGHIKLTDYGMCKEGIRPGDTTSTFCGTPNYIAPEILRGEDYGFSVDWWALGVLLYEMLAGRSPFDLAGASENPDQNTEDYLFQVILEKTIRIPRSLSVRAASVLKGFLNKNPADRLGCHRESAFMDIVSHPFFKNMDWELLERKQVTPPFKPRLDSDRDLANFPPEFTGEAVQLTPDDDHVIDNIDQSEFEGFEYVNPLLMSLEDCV
The assay is described as follows: affinity purification with mass spectrometry; Tandem Affinity Purification of TTaPKC FL from extracts of embryos overexpressing it (69B-Gal4); control 69B-Gal4 extract; bands identified by mass spectrometry.
For Lgl, endogenous (from UniProt P08111), the binding entry is “binds”.

With “Nuclear Fallout (Nuf), endogenous (Drosophila (endogenous in embryos))”, the binding entry is listed as “binds”.

Take “Par-1, endogenous (Drosophila (endogenous in embryos))”: the binding result is given as “binds”.
